Measurements as given in paper PMC12217281.
No constants are given. Whether binding was seen depends on the method and setting. In cells and extracts the contact can be indirect. Some results given as binding are weak or reduced against the parent protein; the word gives no strength.

Protein sequences, listed by entry. Tags and fused reporters are not part of them.
UniProt P27144: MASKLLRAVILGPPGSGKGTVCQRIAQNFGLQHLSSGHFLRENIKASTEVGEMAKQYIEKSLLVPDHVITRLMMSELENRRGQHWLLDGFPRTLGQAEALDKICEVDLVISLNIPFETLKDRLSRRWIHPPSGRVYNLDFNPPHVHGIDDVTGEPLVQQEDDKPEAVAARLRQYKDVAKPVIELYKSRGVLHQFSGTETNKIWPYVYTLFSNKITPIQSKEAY

Target: adenylate kinase 4 (AK4) (human (endogenous in 6-10B)) (UniProt P27144)
Assay: co-IP; 6-10B lysate in IP lysis buffer, anti-AK4 antibody (anti-IgG as negative control) at 4 °C overnight, Protein A/G Sepharose beads, western blotting

binding: binds
B1: nicotinamide nucleotide transhydrogenase (NNT) (protein, UniProt Q13423 44-1086)
chain: CKAPVKPGIPYKQLTVGVPKEIFQNEKRVALSPAGVQNLVKQGFNVVVESGAGEASKFSDDHYRVAGAQIQGAKEVLASDLVVKVRAPMVNPTLGVHEADLLKTSGTLISFIYPAQNPELLNKLSQRKTTVLAMDQVPRVTIAQGYDALSSMANIAGYKAVVLAANHFGRFFTGQITAAGKVPPAKILIVGGGVAGLASAGAAKSMGAIVRGFDTRAAALEQFKSLGAEPLEVDLKESGEGQGGYAKEMSKEFIEAEMKLFAQQCKEVDILISTALIPGKKAPVLFNKEMIESMKEGSVVVDLAAEAGGNFETTKPGELYIHKGITHIGYTDLPSRMATQASTLYSNNITKLLKAISPDKDNFYFDVKDDFDFGTMGHVIRGTVVMKDGKVIFPAPTPKNIPQGAPVKQKTVAELEAEKAATITPFRKTMSTASAYTAGLTGILGLGIAAPNLAFSQMVTTFGLAGIVGYHTVWGVTPALHSPLMSVTNAISGLTAVGGLALMGGHLYPSTTSQGLAALAAFISSVNIAGGFLVTQRMLDMFKRPTDPPEYNYLYLLPAGTFVGGYLAALYSGYNIEQIMYLGSGLCCVGALAGLSTQGTARLGNALGMIGVAGGLAATLGVLKPGPELLAQMSGAMALGGTIGLTIAKRIQISDLPQLVAAFHSLVGLAAVLTCIAEYIIEYPHFATDAAANLTKIVAYLGTYIGGVTFSGSLIAYGKLQGLLKSAPLLLPGRHLLNAGLLAASVGGIIPFMVDPSFTTGITCLGSVSALSAVMGVTLTAAIGGADMPVVITVLNSYSGWALCAEGFLLNNNLLTIVGALIGSSGAILSYIMCVAMNRSLANVILGGYGTTSTAGGKPMEISGTHTEINLDNAIDMIREANSIIITPGYGLCAAKAQYPIADLVKMLTEQGKKVRFGIHPVAGRMPGQLNVLLAEAGVPYDIVLEMDEINHDFPDTDLVLVIGANDTVNSAAQEDPNSIIAGMPVLEVWKSKQVIVMKRSLGVGYAAVDNPIFYKPNTAMLLGDAKKTCDALQAKVRESYQK
